The source gives many values for each of these; only a part stands here. Peptide text beside a SMILES is read from it. * marks the point of attachment. βNA = c1ccc2cc(N*)ccc2c1
Assays:
[1] = tested on: E. coli AG100A; experiment: EtBr efflux by real-time fluorometry; conditions: 20 µM
[2] = tested on: E. coli AG100; experiment: EtBr efflux by real-time fluorometry; conditions: 80 µM, + glucose

NC(N)=NCCC[C@H](NC(=O)[C@@H](N)Cc1ccccc1)C(=O)Nc1ccc2ccccc2c1 [PAβN] (H-Phe-Arg-βNA)
Fluorescence raw data, Channel Cycling A.530/585hp ([1]; cycle 31, without glucose): 1.514
Fluorescence raw data, Channel Cycling A.530/585hp ([1]; cycle 32, + glucose): 1.457
Fluorescence raw data, Channel Cycling A.530/585hp ([1]; cycle 32, without glucose): 1.47
Fluorescence raw data, Channel Cycling A.530/585hp ([1]; cycle 33, + glucose): 1.471
Fluorescence raw data, Channel Cycling A.530/585hp ([1]; cycle 33, without glucose): 1.433
Fluorescence raw data, Channel Cycling A.530/585hp ([1]; cycle 34, + glucose): 1.426
Fluorescence raw data, Channel Cycling A.530/585hp ([1]; cycle 34, without glucose): 1.434
Fluorescence raw data, Channel Cycling A.530/585hp ([1]; cycle 35, + glucose): 1.471
Fluorescence raw data, Channel Cycling A.530/585hp ([1]; cycle 35, without glucose): 1.47
Fluorescence raw data, Channel Cycling A.530/585hp ([1]; cycle 36, + glucose): 1.462
Fluorescence raw data, Channel Cycling A.530/585hp ([1]; cycle 36, without glucose): 1.472
Fluorescence raw data, Channel Cycling A.530/585hp ([1]; cycle 37, + glucose): 1.422
Fluorescence raw data, Channel Cycling A.530/585hp ([1]; cycle 37, without glucose): 1.445
Fluorescence raw data, Channel Cycling A.530/585hp ([1]; cycle 38, + glucose): 1.451
Fluorescence raw data, Channel Cycling A.530/585hp ([1]; cycle 38, without glucose): 1.476
Fluorescence raw data, Channel Cycling A.530/585hp ([1]; cycle 39, + glucose): 1.419
Fluorescence raw data, Channel Cycling A.530/585hp ([1]; cycle 39, without glucose): 1.481
Fluorescence raw data, Channel Cycling A.530/585hp ([1]; cycle 40, + glucose): 1.457
Fluorescence raw data, Channel Cycling A.530/585hp ([1]; cycle 40, without glucose): 1.478
Fluorescence raw data, Channel Cycling A.530/585hp ([1]; cycle 41, + glucose): 1.372
Fluorescence raw data, Channel Cycling A.530/585hp ([1]; cycle 41, without glucose): 1.475
Fluorescence raw data, Channel Cycling A.530/585hp ([1]; cycle 42, + glucose): 1.37
Fluorescence raw data, Channel Cycling A.530/585hp ([1]; cycle 42, without glucose): 1.475
Fluorescence raw data, Channel Cycling A.530/585hp ([1]; cycle 43, + glucose): 1.3901
Fluorescence raw data, Channel Cycling A.530/585hp ([1]; cycle 43, without glucose): 1.4822
Fluorescence raw data, Channel Cycling A.530/585hp ([1]; cycle 44, + glucose): 1.383
Fluorescence raw data, Channel Cycling A.530/585hp ([1]; cycle 44, without glucose): 1.466
Fluorescence raw data, Channel Cycling A.530/585hp ([1]; cycle 45, + glucose): 1.36
Fluorescence raw data, Channel Cycling A.530/585hp ([1]; cycle 45, without glucose): 1.436
Fluorescence raw data, Channel Cycling A.530/585hp ([1]; cycle 46, + glucose): 1.382
Fluorescence raw data, Channel Cycling A.530/585hp ([1]; cycle 46, without glucose): 1.443
Fluorescence raw data, Channel Cycling A.530/585hp ([1]; cycle 47, + glucose): 1.378
Fluorescence raw data, Channel Cycling A.530/585hp ([1]; cycle 47, without glucose): 1.441
Fluorescence raw data, Channel Cycling A.530/585hp ([1]; cycle 48, + glucose): 1.366
Fluorescence raw data, Channel Cycling A.530/585hp ([1]; cycle 48, without glucose): 1.459
Fluorescence raw data, Channel Cycling A.530/585hp ([1]; cycle 49, + glucose): 1.364
Fluorescence raw data, Channel Cycling A.530/585hp ([1]; cycle 49, without glucose): 1.415
Fluorescence raw data, Channel Cycling A.530/585hp ([1]; cycle 50, + glucose): 1.345
Fluorescence raw data, Channel Cycling A.530/585hp ([1]; cycle 50, without glucose): 1.468
Fluorescence raw data, Channel Cycling A.530/585hp ([1]; cycle 51, + glucose): 1.365
Fluorescence raw data, Channel Cycling A.530/585hp ([1]; cycle 51, without glucose): 1.421
Fluorescence raw data, Channel Cycling A.530/585hp ([1]; cycle 52, + glucose): 1.336
Fluorescence raw data, Channel Cycling A.530/585hp ([1]; cycle 52, without glucose): 1.473
Fluorescence raw data, Channel Cycling A.530/585hp ([1]; cycle 53, + glucose): 1.34
Fluorescence raw data, Channel Cycling A.530/585hp ([1]; cycle 53, without glucose): 1.466
Fluorescence raw data, Channel Cycling A.530/585hp ([1]; cycle 54, + glucose): 1.309
Fluorescence raw data, Channel Cycling A.530/585hp ([1]; cycle 54, without glucose): 1.466
Fluorescence raw data, Channel Cycling A.530/585hp ([1]; cycle 55, + glucose): 1.3623
Fluorescence raw data, Channel Cycling A.530/585hp ([1]; cycle 55, without glucose): 1.416
Fluorescence raw data, Channel Cycling A.530/585hp ([1]; cycle 56, + glucose): 1.331
Fluorescence raw data, Channel Cycling A.530/585hp ([1]; cycle 56, without glucose): 1.427
Fluorescence raw data, Channel Cycling A.530/585hp ([1]; cycle 57, + glucose): 1.368
Fluorescence raw data, Channel Cycling A.530/585hp ([1]; cycle 57, without glucose): 1.423
Fluorescence raw data, Channel Cycling A.530/585hp ([1]; cycle 58, + glucose): 1.332
Fluorescence raw data, Channel Cycling A.530/585hp ([1]; cycle 58, without glucose): 1.416
Fluorescence raw data, Channel Cycling A.530/585hp ([1]; cycle 59, + glucose): 1.363
Fluorescence raw data, Channel Cycling A.530/585hp ([1]; cycle 59, without glucose): 1.442
Fluorescence raw data, Channel Cycling A.530/585hp ([1]; cycle 60, + glucose): 1.351
Fluorescence raw data, Channel Cycling A.530/585hp ([1]; cycle 60, without glucose): 1.452
Fluorescence raw data, Channel Cycling A.530/585hp ([1]; cycle 61, + glucose): 1.355
Fluorescence raw data, Channel Cycling A.530/585hp ([1]; cycle 61, without glucose): 1.419
EtBr fluorescence (Channel Cycling A.530/585hp) ([2]; cycle 4): 1.534
EtBr fluorescence (Channel Cycling A.530/585hp) ([2]; cycle 5): 1.49
EtBr fluorescence (Channel Cycling A.530/585hp) ([2]; cycle 6): 1.506
EtBr fluorescence (Channel Cycling A.530/585hp) ([2]; cycle 7): 1.368
EtBr fluorescence (Channel Cycling A.530/585hp) ([2]; cycle 8): 1.336
EtBr fluorescence (Channel Cycling A.530/585hp) ([2]; cycle 45): 1.135
EtBr fluorescence (Channel Cycling A.530/585hp) ([2]; cycle 46): 1.139
EtBr fluorescence (Channel Cycling A.530/585hp) ([2]; cycle 47): 1.12
EtBr fluorescence (Channel Cycling A.530/585hp) ([2]; cycle 48): 1.128
EtBr fluorescence (Channel Cycling A.530/585hp) ([2]; cycle 49): 1.1417
EtBr fluorescence (Channel Cycling A.530/585hp) ([2]; cycle 50): 1.104
EtBr fluorescence (Channel Cycling A.530/585hp) ([2]; cycle 51): 1.146
EtBr fluorescence (Channel Cycling A.530/585hp) ([2]; cycle 52): 1.089
EtBr fluorescence (Channel Cycling A.530/585hp) ([2]; cycle 53): 1.097
EtBr fluorescence (Channel Cycling A.530/585hp) ([2]; cycle 54): 1.147
EtBr fluorescence (Channel Cycling A.530/585hp) ([2]; cycle 55): 1.091
EtBr fluorescence (Channel Cycling A.530/585hp) ([2]; cycle 56): 1.125
EtBr fluorescence (Channel Cycling A.530/585hp) ([2]; cycle 57): 1.116
EtBr fluorescence (Channel Cycling A.530/585hp) ([2]; cycle 58): 1.115
EtBr fluorescence (Channel Cycling A.530/585hp) ([2]; cycle 59): 1.141
EtBr fluorescence (Channel Cycling A.530/585hp) ([2]; cycle 60): 1.106
EtBr fluorescence (Channel Cycling A.530/585hp) ([2]; cycle 61): 1.089
